Measurements: PubChem BioAssay AID493014 (National Center for Advancing Translational Sciences (NCATS), 2011)
The other results are listed elsewhere or left out. Further columns of the screen follow, without active or inactive calls. Most of these compounds were active or inconclusive in the main read-out, so they are no random draw. Words in brackets tell the shape of the fitted curve; partial curves, single points and poor fits give uncertain potencies.

Test: qHTS Assay to Find Inhibitors of Chronic Active B-Cell Receptor Signaling
Details: ABC-DLBCL IkBa-CBG/CBR reporter, luminescence ratio (green luciferase fused to IkBa over red control in TMD8 lymphoma cells), 4 h
In short: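 TMD8 human ABC-DLBCL cells with doxycycline-inducible IκBα–green luciferase fusion and unfused red luciferase, in 0.5% FBS medium; compounds up to 46 uM, 4 h at 37C. Green/red luminescence ratio, filter-overlap corrected, fitted to concentration-response curves.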

[1] = measured here: CBR red luminescence, cell number
[2] = measured here: IkBa-CBG green luminescence

Row | SMILES | AC50 [1] | AC50 [2]
1 | Cc1cccn2c(N)c(-c3ccccc3)nc12 | 28.2 µM [falling, partial curve, poor fit] | –
2 | O=S(=O)(c1ccc2nc(Nc3ccccc3)ccc2c1)N1CCCCC1 | – | 12.6 µM [rising, partial curve, poor fit]
3 | CCOc1ccc(CNC(=O)C(CC)n2nc(C)n3c(cc4occc43)c2=O)cc1OC (configuration not stated) | 29.1 µM [falling, single point] | –
4 | COCCNc1c2c(c(C#N)c3nc4ccccc4n13)CCCC2 | – | 15.8 µM [rising, partial curve, poor fit]
5 | COCCCn1c(=O)/c(=C\c2cccc(OC)c2OC)s/c1=C(/C#N)C(=O)Nc1ccc(C(=O)O)cc1 | 20 µM [falling, partial curve, poor fit] | 11.2 µM [rising, single point]
6 | CNC(=O)c1[nH]cnc1C(=O)Nc1ccccc1C | 7.31 µM [falling, partial curve] | 2.59 µM [rising, full curve, poor fit]
7 | CN(CC(=O)Nc1ccc(F)c(F)c1)S(=O)(=O)c1cccs1 | 3.98 µM [falling, partial curve, poor fit] | –
8 | O=C(CNS(=O)(=O)Cc1ccccc1)NCc1ccccc1 | 20 µM [falling, partial curve, poor fit] | –
9 | CC1OC(Nc2ccc(N=Nc3ccccc3)cc2)C(O)C(O)C1O (configuration not stated) | 14.1 µM [falling, single point] | –
10 | CCCCOc1ccc(C(=O)Nc2ccc(N3CCN(C(C)=O)CC3)cc2)cc1 | 8.2 µM [falling, partial curve, poor fit] | –
11 | Cc1ccc2nc(SCC(=O)NCc3ccco3)[nH]c2c1 | 7.31 µM [rising, single point] | –
12 | Cc1ccc(C)c2c1cc(C)c1nnc(SCC(=O)Nc3cccc(C(=O)O)c3)n12 | 11.2 µM [rising, partial curve, poor fit] | –
13 | C=CC[C@@H](CC(=O)N(CCO)Cc1ccccc1)C(=O)NC[C@H](OC(=O)[C@@H](CC=C)CC(=O)OC(C)(C)C)c1ccccc1 | 16.4 µM [falling, single point] | –
14 | COc1ccccc1Cc1noc(COc2cccc(C)c2C)n1 | 0.00731 µM [rising, full curve, poor fit] | –
15 | O=[N+]([O-])c1cc2c(cc1/C=N/Nc1nc(Nc3ccccc3)nc(N3CCCCC3)n1)OCO2 | 2.51 µM [falling, full curve, poor fit] | –
16 | O=C(CN1CCN(Cc2ccc(Cl)cc2)CC1)N/N=C/C=C/c1ccccc1[N+](=O)[O-] | 20.6 µM [falling, partial curve, poor fit] | –
17 | Cc1ccc(C)c(NC(=O)CN(C)C(=O)c2ccc(-c3ccc(Cl)cc3)o2)c1 | 20.6 µM [rising, partial curve, poor fit] | –
18 | O=C(C[C@@H]1C/C=C\C[C@H](NC(=O)OCC2c3ccccc3-c3ccccc32)C(=O)OC[C@H]2CCCN2C1=O)N[C@@H](CO)Cc1ccccc1 | 18.4 µM [falling, single point] | –
19 | O=C(CCCc1nc(-c2ccccc2)no1)NC1CCCC1 | – | 5.01 µM [rising, partial curve, poor fit]
20 | Cc1cc(C)cc(NC(=S)NCc2cccnc2)c1 | 18.4 µM [falling, single point] | –
21 | O=C1CSC(c2ccccc2[N+](=O)[O-])N1c1cccc(F)c1 (configuration not stated) | 35.5 µM [falling, single point] | –

Row | SMILES | AC50 [1] | AC50 [2]
22 | CCOc1ccc(/C=C2/SC(=O)NC2=S)cc1 | 20.6 µM [falling, single point] | –
23 | O=[N+]([O-])c1ccc(SCc2ccncc2)nc1 | 35.5 µM [rising, single point] | –
24 | COC(=O)Cc1ccc2sc(-c3ccccc3)nc2c1 | 14.6 µM [falling, single point] | –
25 | COc1cc2c(cc1OC)-c1cc3ccc4c(c3c[n+]1CC2)OCO4 | 11.6 µM [rising, partial curve, poor fit] | –
26 | O=C(CCNS(=O)(=O)c1ccccc1C(F)(F)F)NCc1ccc2c(c1)OCO2 | 1.46 µM [falling, partial curve] | –
27 | O=C(Nc1ccccc1)C1CC(O)CN1S(=O)(=O)c1ccc([N+](=O)[O-])cc1 (configuration not stated) | 15.8 µM [rising, partial curve, poor fit] | –
28 | CCN(CC(=O)NCc1cccs1)C(=O)/C=C/c1cccc(OC)c1OC | 1.03 µM [rising, full curve, poor fit] | –
29 | Clc1ccc(SCCCCn2ccnc2)cc1 | 3.66 µM [falling, single point] | –
30 | c1ccc(-c2cc(N3CCCCC3)c3ccccc3n2)cc1 | 7.08 µM [rising, full curve, poor fit] | –
31 | CCCCCNC(=O)c1ccccc1SC | 2.06 µM [falling, partial curve, poor fit] | –
32 | COC(=O)c1c(NC(=O)c2nc3nc(C)cc(C(F)F)n3n2)sc2c1CCC2 | 8.91 µM [falling, partial curve, poor fit] | –
33 | COc1ccc(OC)c(C(=O)COC(=O)c2ccccc2O)c1 | 35.5 µM [rising, single point] | –
34 | Cc1cnc(NC(=O)NCC2CCCC(CNC(=O)Nc3ncc(C)s3)C2)s1 (configuration not stated) | 10 µM [falling, partial curve] | –
35 | O=c1oc2ccccc2c(N2CCCCC2)c1CN1CCCC1 | 1.84 µM [falling, full curve] | –
36 | COP(=O)(OC)C(Nc1ccc(C)cc1)c1ccc([N+](=O)[O-])cc1 (configuration not stated) | 3.26 µM [falling, partial curve, poor fit] | –
37 | COc1ccc2[nH]c(C)c(CCNC(=S)Nc3cc(C)ccc3C)c2c1 | 0.461 µM [rising, full curve, poor fit] | –
38 | CCOC(=O)C1=C(C)NC(SC)=C(C#N)C1CC(C)C (configuration not stated) | 5.62 µM [falling, full curve] | –
39 | O=C(Nc1ncc([N+](=O)[O-])s1)c1ccccc1Br | 10 µM [falling, partial curve, poor fit] | –
40 | CCN1CCCC1CNC(=O)c1cc2c(-c3cccc(OC)c3)nn(C)c2s1 (configuration not stated) | 6.51 µM [falling, single point] | –
41 | Cc1ccc(C2CCN(C(=O)Nc3ccc(Cl)c(Cl)c3)C2)cc1 (configuration not stated) | 14.1 µM [falling, partial curve] | –
42 | CCNC(=S)N/N=C(\C)c1ccco1 | – | 35.5 µM [falling, single point]

Row | SMILES | AC50 [1] | AC50 [2]
43 | CC(=O)N1CCc2cc(S(=O)(=O)CCC(=O)N3CCC(C)CC3)ccc21 | 12.6 µM [falling, partial curve, poor fit] | –
44 | O=C(O)c1ccccc1CSc1nc2ccccc2o1 | 35.5 µM [falling, single point] | –
45 | O=C(O)Cc1sc(-c2ccc(C(=O)O)cc2)nc1-c1ccccc1 | 14.1 µM [falling, partial curve, poor fit] | –
46 | O=C(CSc1nc2ccccc2c(=O)[nH]1)Nc1ccccc1C(F)(F)F | 7.94 µM [falling, partial curve] | –
47 | CC1CCc2[nH]c3ccc(C(=O)N(C)CC(=O)Nc4ccccc4Br)cc3c2C1 (configuration not stated) | 1.64 µM [rising, partial curve] | 4.61 µM [rising, partial curve, poor fit]
48 | O=C(Nc1ccc2nc3n(c(=O)c2c1)CCCCC3)c1cc([N+](=O)[O-])ccc1F | 7.94 µM [falling, partial curve] | 6.31 µM [falling, partial curve, poor fit]
49 | CCOc1ccc(S(=O)(=O)/N=C(/Nc2ccc(C(C)=O)cc2)c2ccccc2)cc1 | 5.17 µM [rising, single point] | –
50 | N#Cc1ccccc1OCC(=O)NC1CCCCC1 | 8.2 µM [falling, partial curve, poor fit] | –
51 | COc1cccc(/C=N/Nc2nnc(C)n2N)c1O | 35.5 µM [falling, single point] | –
52 | COc1ccc(NC(=O)CN2C(=O)COc3ccc(C)cc32)cc1 | 35.5 µM [rising, partial curve, poor fit] | –
53 | COC(=O)c1ccccc1NC(=O)CNC(=O)c1ccc(OC)c(OC)c1 | 0.631 µM [falling, full curve] | –
54 | COc1ccc(CCN(C)c2ncnc3sccc23)cc1OC | 6.31 µM [rising, single point] | –
55 | Cc1c(O)nc(SCC(=O)Nc2ccc3c4c(cccc24)CC3)n(-c2ccccc2)c1=O | 18.4 µM [falling, partial curve] | –
56 | CCN(CC)CCNC(=O)c1cc([N+](=O)[O-])c(N(C)C)cc1OC | 14.1 µM [rising, partial curve, poor fit] | –
57 | COc1ccccc1CCC(=O)Nc1nc2ccccc2[nH]1 | 2.31 µM [falling, full curve] | –
58 | O=C(Nc1nc(-c2ccco2)c(-c2ccco2)s1)c1ccco1 | 32.6 µM [falling, single point] | –
59 | O=C(Nc1ccccc1)c1sc(N2CCOCC2)nc1-c1ccccc1 | 2.06 µM [falling, partial curve, poor fit] | –
60 | COc1ccc(/C=N\Nc2ccc([N+](=O)[O-])cc2[N+](=O)[O-])c(C(=O)O)c1OC | 12.6 µM [rising, single point] | –
61 | O=C(Oc1cccc2cccnc12)c1cccs1 | 20.6 µM [rising, single point] | 29.1 µM [falling, single point]
62 | O=C1N2CN(C(c3ccccc3)c3ccccc3)CN=C2SC1(CO)CO | 6.51 µM [falling, partial curve, poor fit] | –

Pulled by compound from the entries so far:
Row | SMILES | AC50 [1] | AC50 [2]
44 | O=C(O)c1ccccc1CSc1nc2ccccc2o1 | 35.5 µM [falling, single point] | –
47 | CC1CCc2[nH]c3ccc(C(=O)N(C)CC(=O)Nc4ccccc4Br)cc3c2C1 (configuration not stated) | 1.64 µM [rising, partial curve] | 4.61 µM [rising, partial curve, poor fit]
54 | COc1ccc(CCN(C)c2ncnc3sccc23)cc1OC | 6.31 µM [rising, single point] | –
60 | COc1ccc(/C=N\Nc2ccc([N+](=O)[O-])cc2[N+](=O)[O-])c(C(=O)O)c1OC | 12.6 µM [rising, single point] | –
53 | COC(=O)c1ccccc1NC(=O)CNC(=O)c1ccc(OC)c(OC)c1 | 0.631 µM [falling, full curve] | –
